# Laboratory results from paper PMC6399291.
# B1: myc-PIKE-A WT [not stated] / GFP-14-3-3β [not stated] (parent)
# chain 1: MHAQRQFVVAAVRAEVRRHEVAKQALNRLRKLAERVDDPELQDSIQASLDSIREAVINSQEWTLSRSIPELRLGVLGDARSGKSSLIHRFLTGSYQVLEKTESEQYKKEMLVDGQTHLVLIREEAGAPDAKFSGWADAVIFVFSLEDENSFQAVSRLHGQLSSLRGEGRGGLALALVGTQDRISASSPRVVGDARARALCADMKRCSYYETCATYGLNVDRVFQEVAQKVVTLRKQQQLLAACKSLPSSPSHSAASTPVAGQASNGGHTSDYSSSLPSSPNVGHRELRAEAAAVAGLSTPGSLHRAAKRRTSLFANRRGSDSEKRSLDSRGETTGSGRAIPIKQSFLLKRSGNSLNKEWKKKYVTLSSNGFLLYHPSINDYIHSTHGKEMDLLRTTVKVPGKRPPRAISAFGPSASINGLVKDMSTVQMGEGLEATTPMPSPSPSPSSLQPPPDQTSKHLLKPDRNLARALSTDCTPSGDLSPLSREPPPSPMVKKQRRKKLTTPSKTEGSAGQAEEENFEFLIVSSTGQTWHFEAASFEERDAWVQAIESQILASLQCCESSKVKLRTDSQSEAVAIQAIRNAKGNSICVDCGAPNPTWASLNLGALICIECSGIHRNLGTHLSRVRSLDLDDWPRELTLVLTAIGNDTANRVWESDTRGRAKPSRDSSREERESWIRAKYEQLLFLAPLSTSEEPLGRQLWAAVQAQDVATVLLLLAHARHGPLDTSVEDPQLRSPLHLAAELAHVVITQLLLWYGADVAARDAQGRTALFYARQAGSQLCADILLQHGCPGEGGSAATTPSAATTPSITATPSPRRRSSAASVGRADAPVALV
# chain 2: MTMDKSELVQKAKLAEQAERYDDMAAAMKAVTEQGHELSNEERNLLSVAYKNVVGARRSSWRVISSIEQKTERNEKKQQMGKEYREKIEAELQDICNDVLELLDKYLIPNATQPESKVFYLKMKGDYFRYLSEVASGDNKQTTVSNSQQAYQEAFEISKKEMQPTHPIRLGLALNFSVFYYEILNSPEKACSLAKTAFDEAIAELDTLNEESYKDSTLIMQLLRDNLTLWTSENQGDEGDAGEGEN
# B2: GST-PIKE-A WT [not stated] / Flag-CDK4 [not stated] (parent)
# chain 1: B1 chain 1
# chain 2: MATSRYEPVAEIGVGAYGTVYKARDPHSGHFVALKSVRVPNGGGGGGGLPISTVREVALLRRLEAFEHPNVVRLMDVCATSRTDREIKVTLVFEHVDQDLRTYLDKAPPPGLPAETIKDLMRQFLRGLDFLHANCIVHRDLKPENILVTSGGTVKLADFGLARIYSYQMALTPVVVTLWYRAPEVLLQSTYATPVDMWSVGCIFAEMFRRKPLFCGNSEADQLGKIFDLIGLPPEDDWPRDVSLPRGAFPPRGPRPVQSVVPEMEESGAQLLLEMLTFNPHKRISAFRALQHSYLHKDEGNPE
# Variants of: B1
# Test: co-immunoprecipitation (IP: anti-GFP, WB: anti-myc), band quantification
# Settings: with GFP-14-3-3β; HEK293 cells, co-transfected; parent: 1; read off a plot
row,Variant,response (IP/Cell lysate)
1,chain 1 S351D,1.2
2,chain 1 S351A,0.85
3,chain 1 S351D S377D,1.9
4,chain 1 S351A S377A,0.6

# Second part, the variant after the results:
row,response (IP/Cell lysate),Variant
1,1.3,chain 1 S377D
2,0.7,chain 1 S377A

# Variants of: B2
# Test: GST pull-down (WB: anti-Flag), band quantification
# Settings: with Flag-CDK4; HEK293 cells, co-transfected with myc-AMPKα T172A; parent: 0.55; read off a plot
row,response (GST pull down/Cell lysate),Variant
1,0.18,chain 1 S351A S377A

# Same assay, conditions: with Flag-CDK4; HEK293 cells, co-transfected with myc-AMPKα T172D; parent: 1; read off a plot
row,response (GST pull down/Cell lysate),Variant
1,0.35,chain 1 S351A S377A

# Variants of: B2
# Test: co-immunoprecipitation (IP: anti-CDK4, WB: anti-GFP), band quantification
# Settings: with CDK4 (in HEK293 cells, Fig. 4d), parent: 1, read off a plot
row,response (IP/Cell lysate (anti-GFP)),Variant
1,0.35,chain 1 S351A S377A
2,2,chain 1 S351D S377D

# Variants of: B2
# Test: co-immunoprecipitation (IP: anti-GFP, WB: anti-CDK4), band quantification
# Settings: with CDK4 (in HEK293 cells, Fig. 4d), parent: 1, read off a plot
row,response (IP/Cell lysate (anti-CDK4)),Variant
1,0.7,chain 1 S351A S377A
2,2.1,chain 1 S351D S377D
